Reference: paper PMC2984483
Construct, isoform or probe ends are uncertain for at least one entry. Protein sequences can lack the tags named with them.

Tests used:
[1] = molecular target: T1, H-NS-His6 (Escherichia coli) (UniProt P0ACF8); assay: competitive EMSA; details: pBR322 TaqI/SspI fragments as competitor; EMSA: 0.1 ng 32P probe, 15 ul, 30 min at 25 C (stated for GadE/RcsBD56E), 6% native PAGE; recombinant protein; protein details: C-terminal His6; probe letters rebuilt from the primers and the genome
T1 sequence (looked up, limits assumed): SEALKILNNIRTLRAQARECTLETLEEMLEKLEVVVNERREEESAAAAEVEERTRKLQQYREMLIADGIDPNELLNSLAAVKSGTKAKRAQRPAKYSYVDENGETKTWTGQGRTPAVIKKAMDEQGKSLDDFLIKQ

[2] = molecular target: T2, Strep-AdiY (Escherichia coli) (UniProt P33234); assay: EMSA; details: EMSA: 0.1 ng 32P probe, 15 ul, 30 min at 25 C (stated for GadE/RcsBD56E), 6% native PAGE; recombinant protein; protein details: N-terminal Strep; label: 32P; probe letters rebuilt from the primers and the genome
T2 sequence (looked up, limits assumed): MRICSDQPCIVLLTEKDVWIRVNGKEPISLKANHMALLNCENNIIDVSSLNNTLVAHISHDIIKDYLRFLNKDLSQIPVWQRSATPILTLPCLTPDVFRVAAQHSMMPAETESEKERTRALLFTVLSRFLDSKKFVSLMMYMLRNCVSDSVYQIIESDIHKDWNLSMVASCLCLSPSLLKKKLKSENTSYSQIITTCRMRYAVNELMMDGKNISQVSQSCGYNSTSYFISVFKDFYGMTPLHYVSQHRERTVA

[3] = molecular target: T3, HdfR-His6 (Escherichia coli) (UniProt P0A8R9); assay: EMSA; details: EMSA: 0.1 ng 32P probe, 15 ul, 30 min at 25 C (stated for GadE/RcsBD56E), 6% native PAGE; recombinant protein; protein details: C-terminal His6; label: 32P; probe letters rebuilt from the primers and the genome
T3 sequence (looked up, limits assumed): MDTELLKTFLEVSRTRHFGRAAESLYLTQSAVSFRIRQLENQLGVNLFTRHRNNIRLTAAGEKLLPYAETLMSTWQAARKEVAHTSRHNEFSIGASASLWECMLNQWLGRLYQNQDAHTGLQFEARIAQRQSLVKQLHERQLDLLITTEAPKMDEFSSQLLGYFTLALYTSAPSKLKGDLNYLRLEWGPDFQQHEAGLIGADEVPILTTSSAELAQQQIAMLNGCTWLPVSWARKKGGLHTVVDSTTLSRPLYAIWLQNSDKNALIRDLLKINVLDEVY

| Sequence | binding result [1] | binding result [2] | binding result [3] |
| --- | --- | --- | --- |
| ACAGAACAAACGAGCGACATTTTATCTCCTTAAAACAATAAAGTTTTTATCGATACTTTTTTAACATTTCATATTTATAATTTGCTGTTTGTTTTCAGCCTTGCAAACTATTGATAATGAAATGTGTAAGATCTCTTGCAATGCGACCCATTTCTGAAATACTCAGCTGATCAATTGCCGAAAAAATGGCTATCAACGTAAGTGTCAGTAATAAGACAACCACAATTGCAGACATGATTTCTTTATAGTTGTCTCTTTGCGTGATTTTGTTTTTCACTGTGGTCGCATGCATTTCAAATATGTTTATTTAGCGGATAACGTTAAAAATCGTTAATCAGTA (double strand) [ydeO promoter] | binds |  |  |
| TTGCGTTCATAGATTATTCCCTTTGCAATGAAGCATCTCCCTTCTCCCTGTAGTAATACAGACATAAGGCGTCATCTCATTTTCTCAATAAAAATAAGAAAATCTGAGCTTCCTTTAAGATAATTCGACAAGTATACCATATAAATAGTCGGCATAAATGAAATGTCAACAATAAAATCAGGGATTGTACCGATGATTTATAGTTTCAAGTTGGCACTATAAGTCTTCTTACTAATCCTACAGGCGTAAGAATTGTATTGCAAAAGCCACGGTTTAGTCCTCTGTTGTTTTTTTTGCACCTCATTTAAAT (double strand) [evgA promoter] | binds |  |  |
| TTCGCATCGGTTAATACGGTGAAGAGGGGATCTCAATTACTGCATAAATATGATGAGCAGGCTGCTCATCCAGAAAGCTTCCAGCGGATTTCCAACTTATCGGGAAAGCTGATACAGGTCAAATGGCAAGCTTATTGGTACAGAAATGTGCTTTAGCGCAAAATTCTTTATTAAATGACTGAAATTAAAATGGATTTTATCTTTAAGGCTAAAAGGGAAGTCGTTAGAGAAACAGTCAATTCCTGACTGTCATAAAGGTGTGTTAACCCTTATCCTGCCTTGAACTGACGACAAAACCAGCATTTTATACTGCCTTAATTGGTAATGACGTTTCATGCTACTGTTTTTGCCTAAAATCCATCAGGAGATAAAAAAATCTGACACAAGATAAGCAAAAGTGATTTATGTGATTATGCATGAAATTTCGGTAATTTTG (double strand) [gltBD promoter] |  | binds | binds |
